Assay results reported in patent US12134610B2, “Somatostatin subtype-2 receptor (SST2R) targeted therapeutics and uses thereof” (priority 2022, dated 2024).
At least one compound was matched to its structure with a doubt left. Starred links: 1 amine or outer side, 2 acyl side, 3 side chain; linkers in the order of their positions; H or OH if unused. Non-standard residues stand in square brackets, D forms with d. Residues, ends and D or L forms follow the SMILES beside them. *: point of attachment. X5 = Cc1cc(F)cc(-c2cnc(NCCNC(=O)CCOCCC(=O)*)c(-c3nc4cc(Cl)ccc4[nH]3)c2N2CCC(N)CC2)c1; Dolaproine = CO[C@@H]([C@@H]1CCCN1)[C@@H](C)C(=O)O; Dil = CC[C@H](C)[C@H](NC)[C@@H](CC(=O)O)OC; PABC = O=C(OCc1ccc(N[*:1])cc1)[*:2]; X2 = C[C@@H](N*)[C@@H](O)c1ccccc1; NMeV = CN[C@H](C(=O)O)C(C)C

The chains behind the UniProt entries cited, without tags or fusion partners. Where a name states a change or a piece, a line headed by the entry shows the natural chain unless it says otherwise.
UniProt P30874: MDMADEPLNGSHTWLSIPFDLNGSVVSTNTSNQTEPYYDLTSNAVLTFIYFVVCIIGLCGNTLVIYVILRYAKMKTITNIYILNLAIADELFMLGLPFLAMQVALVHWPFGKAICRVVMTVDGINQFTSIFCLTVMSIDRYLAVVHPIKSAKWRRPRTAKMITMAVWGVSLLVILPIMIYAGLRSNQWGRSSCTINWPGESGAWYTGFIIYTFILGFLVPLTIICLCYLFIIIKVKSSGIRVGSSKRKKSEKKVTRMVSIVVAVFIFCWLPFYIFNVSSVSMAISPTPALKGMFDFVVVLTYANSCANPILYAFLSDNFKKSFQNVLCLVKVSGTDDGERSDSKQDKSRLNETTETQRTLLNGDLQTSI

What was measured:
[1] = target: T1, human somatostatin receptor subtype 2 (Homo sapiens, UniProt P30874); experiment: Functional cAMP assay for SSTR2 agonists (HTRF) in CHO-K1 cells; assay type: cell-based; conditions: CHO-K1 cells stably expressing human SST2, 20 min; read-out: hSST2 cAMP Avg EC50
T1 construct: expressed in transfected cells
Text: General overview: All five SSTR subtypes are Gi coupled G-protein coupled receptors (GPCRs) that lead to decreases in intracellular cyclic AMP (cAMP) when activated by an agonist. Therefore, measurement of intracellular cAMP levels can be used to assess whether compounds of the invention are agonists of SSTR subtypes (John Kelly, Troy Stevens, W. Joseph Thompson, and Roland Seifert, Current Protocols in Pharmacology, 2005, 2.2.1-2.2). One example of an intracellular cAMP assay is described below.
Functional Assay for SSTR2 Agonists
Four days prior to the assay, 2,000 Chinese hamster ovary cells (CHO-K1, ATCC #CCL-61) stably expressing the human somatostatin receptor subtype 2 are plated in each well of a 96-well tissue culture-treated plate in Ham's F12 growth media (ThermoFisher #10-080-CM) supplemented with 10% donor bovine serum (Gemini Bio-Products #100-506), 100 U/mL penicillin; 100 ug/mL streptomycin; 2 mM L-glutamine (Gemini Bio-Products #400-110) and 0.2 mg/mL hygromycin B (GoldBio #31282-04-9). The cells are cultured at 37° C., 5% CO2 and 95% humidity. cAMP is measured with HTRF dynamic cAMP assay (Cisbio, #62AM5PEJ) per manufacturer's instructions. […] The lysate is transferred to 384-well plates and incubated for 1-24 hours at room temperature, and cAMP accumulation is detected by d2-labeled cAMP and Anti-cAMP-Cryptate. […]

SST2 = target: T2, SST2 (Homo sapiens, UniProt P30874); experiment: PathHunter CHO-K1 SST2 internalization assay; assay type: cell-based; conditions: PathHunter CHO-K1 SST2, 90 min
T2 construct: host or cells: PathHunter CHO-K1 SST2 cells
Protocol: SMDCs of the present invention were assessed in vitro using the human PathHunter CHO-K1 SST2 β-arrestin2 and PathHunter CHO-K1 SST2 Internalization Assays from DiscoverX. The CHO-K cells were seeded in 20 μLs of cell culture medium in a white-walled 384 well tissue culture-compatible plate at a density of 2500 cells/well. After a 48-hour incubation, cells were treated with 5 μLs of a 1:3 serially diluted SST2 SMDC prepared at 5× concentration with a final top compound concentration of 10 uM for 90 min at 37 C and in 5% CO2. 11 dilutions were tested as well as one treatment that was compound free. After incubation, the media containing treatments were discarded and 20 μL of a working solution of Beta-Glo from Promega Beta-Glo Assay System was added to each well. The plate was then incubated for 60 min at room temperature in the dark. Luminescence was measured using a Tecan plate reader. IC50 curves were generated using the nonlinear regression analysis (four-parameters) with GraphPad Prism 9. Results were the average of duplicates and are corrected for background.

Structure (SMILES): CC[C@H](C)[C@@H]([C@@H](CC(=O)N1CCC[C@H]1[C@H](OC)[C@@H](C)C(=O)N[C@H](C)[C@@H](O)c1ccccc1)OC)N(C)C(=O)[C@@H](NC(=O)[C@H](C(C)C)N(C)C(=O)OCc1ccc(NC(=O)[C@H](C)NC(=O)[C@@H](NC(=O)[C@H](CCC(=O)O)NC(=O)CCOCCC(=O)NCCNc2ncc(-c3cc(C)cc(F)c3)c(N3CCC(N)CC3)c2-c2nc3cc(Cl)ccc3[nH]2)C(C)C)cc1)C(C)C [Compound 32] (X5-EVA[PABC][NMeV]V[Dil][Dolaproine]-X2)
- EC50 [1]: 0.37 nM
- EC50 (SST2): 33.3 nM
